Results are given in words; binding and its absence hold for the method and conditions named. Binding seen in cells or lysates may run through a third protein. Here binding means that the protein was enriched with, or labelled near, the bait; the list need not be complete.
B1: HSD17B12 (protein, UniProt Q53GQ0 1-312)
chain: MESALPAAGFLYWVGAGTVAYLALRISYSLFTALRVWGVGNEAGVGPGLGEWAVVTGSTDGIGKSYAEELAKHGMKVVLISRSKDKLDQVSSEIKEKFKVETRTIAVDFASEDIYDKIKTGLAGLEIGILVNNVGMSYEYPEYFLDVPDLDNVIKKMININILSVCKMTQLVLPGMVERSKGAILNISSGSGMLPVPLLTIYSATKTFVDFFSQCLHEEYRSKGVFVQSVLPYFVATKLAKIRKPTLDKPSPETFVKSAIKTVGLQSRTNGYLIHALMGSIISNLPSWIYLKIVMNMNKSTRAHYLKKTKKN
B2: TMEM41B (protein, UniProt Q5BJD5 1-291)
chain: MAKGRVAERSQLGAHHTTPVGDGAAGTRGLAAPGSRDHQKEKSWVEAGSARMSLLILVSIFLSAAFVMFLVYKNFPQLSEEERVNMKVPRDMDDAKALGKVLSKYKDTFYVQVLVAYFATYIFLQTFAIPGSIFLSILSGFLYPFPLALFLVCLCSGLGASFCYMLSYLVGRPVVYKYLTEKAVKWSQQVERHREHLINYIIFLRITPFLPNWFINITSPVINVPLKVFFIGTFLGVAPPSFVAIKAGTTLYQLTTAGEAVSWNSIFILMILAVLSILPAIFQKKLKQKFE
B3: UGT8 (protein, UniProt Q16880 21-541)
chain: AKIIIVPPIMFESHMYIFKTLASALHERGHHTVFLLSEGRDIAPSNHYSLQRYPGIFNSTTSDAFLQSKMRNIFSGRLTAIELFDILDHYTKNCDLMVGNHALIQGLKKEKFDLLLVDPNDMCGFVIAHLLGVKYAVFSTGLWYPAEVGAPAPLAYVPEFNSLLTDRMNLLQRMKNTGVYLISRLGVSFLVLPKYERIMQKYNLLPEKSMYDLVHGSSLWMLCTDVALEFPRPTLPNVVYVGGILTKPASPLPEDLQRWVNGANEHGFVLVSFGAGVKYLSEDIANKLAGALGRLPQKVIWRFSGPKPKNLGNNTKLIEWLPQNDLLGHSKIKAFLSHGGLNSIFETIYHGVPVVGIPLFGDHYDTMTRVQAKGMGILLEWKTVTEKELYEALVKVINNPSYRQRAQKLSEIHKDQPGHPVNRTIYWIDYIIRHNGAHHLRAAVHQISFCQYFLLDIAFVLLLGAALLYFLLSWVTKFIYRKIKSLWSRNKHSTVNGHYHNGILNGKYKRNGHIKHEKKVK

Chains of the proteins cited; added tags and fusions are not shown.
UniProt O14579: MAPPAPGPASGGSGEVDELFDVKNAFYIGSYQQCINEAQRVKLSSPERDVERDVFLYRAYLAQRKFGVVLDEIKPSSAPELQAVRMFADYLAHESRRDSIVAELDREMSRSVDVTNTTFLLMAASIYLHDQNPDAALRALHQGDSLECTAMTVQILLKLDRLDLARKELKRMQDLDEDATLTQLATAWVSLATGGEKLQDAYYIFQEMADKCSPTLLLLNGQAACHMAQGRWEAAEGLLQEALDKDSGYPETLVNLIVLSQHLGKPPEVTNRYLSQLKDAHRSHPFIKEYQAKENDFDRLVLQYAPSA

Target: GFP-εCOPI (UniProt O14579)
Assay: affinity purification with mass spectrometry

binding, binds:
B1, B2, B3
